Reference: PMC12472322, “Structure–Activity Relationship Study of 3-Alkynyl-6-aryl-isothiazolo[4,3-b]pyridines as Dual Inhibitors of the Lipid Kinases PIKfyve and PIP4K2C” (Pharmaceuticals, 2025)

Assays:
Assay in all cases: cell proliferation assay (MTS, 72 h)
[1] = tested on: HCT-116; settings: Homo sapiens, HCT-116, 72 h, read-out: CC50 HCT-116
[2] = tested on: DND-41; settings: DND41, 72 h, read-out: CC50 DND-41
[3] = tested on: HL-60; settings: Homo sapiens, HL-60, 72 h, read-out: CC50 HL-60
[4] = tested on: LN-229; settings: Homo sapiens, LN-229, 72 h, read-out: CC50 LN-229

SMILES: Nc1ccc(C(=O)Nc2cccc(-c3nc(N4CCOCC4)c4oc5ncccc5c4n3)c2)cn1 [YM-201636, reference compound]
- CC50 [1]: 1.08 ± 1.23 µM
- CC50 [2]: 0.38 ± 0.09 µM
- CC50 [3]: 0.31 ± 0.11 µM
- CC50 [4]: 0.16 ± 0.03 µM
